Data: the supplement of paper PMC10849652
The other results are listed elsewhere or left out.

Protein sequences, listed by entry. Tags and fused reporters are not part of them. Lines headed by an entry give the natural chain unless they say otherwise; changes in a name come on top.
UniProt P34931, whole entry, looked up: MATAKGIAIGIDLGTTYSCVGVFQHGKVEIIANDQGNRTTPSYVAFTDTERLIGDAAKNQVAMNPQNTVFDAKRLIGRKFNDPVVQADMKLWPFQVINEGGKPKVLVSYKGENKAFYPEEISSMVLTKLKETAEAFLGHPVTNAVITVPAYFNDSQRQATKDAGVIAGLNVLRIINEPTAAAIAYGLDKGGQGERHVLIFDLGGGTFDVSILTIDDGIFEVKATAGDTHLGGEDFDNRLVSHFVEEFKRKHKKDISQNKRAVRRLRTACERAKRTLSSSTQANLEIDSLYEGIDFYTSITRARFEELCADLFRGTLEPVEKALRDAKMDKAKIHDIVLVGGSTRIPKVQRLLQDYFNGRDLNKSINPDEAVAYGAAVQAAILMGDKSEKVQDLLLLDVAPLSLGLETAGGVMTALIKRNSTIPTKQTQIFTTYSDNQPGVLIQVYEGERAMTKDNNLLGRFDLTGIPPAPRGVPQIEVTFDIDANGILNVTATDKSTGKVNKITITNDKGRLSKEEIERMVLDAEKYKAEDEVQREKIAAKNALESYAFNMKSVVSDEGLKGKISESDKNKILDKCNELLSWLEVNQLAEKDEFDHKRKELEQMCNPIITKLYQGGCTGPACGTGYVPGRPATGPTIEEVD
UniProt P50747: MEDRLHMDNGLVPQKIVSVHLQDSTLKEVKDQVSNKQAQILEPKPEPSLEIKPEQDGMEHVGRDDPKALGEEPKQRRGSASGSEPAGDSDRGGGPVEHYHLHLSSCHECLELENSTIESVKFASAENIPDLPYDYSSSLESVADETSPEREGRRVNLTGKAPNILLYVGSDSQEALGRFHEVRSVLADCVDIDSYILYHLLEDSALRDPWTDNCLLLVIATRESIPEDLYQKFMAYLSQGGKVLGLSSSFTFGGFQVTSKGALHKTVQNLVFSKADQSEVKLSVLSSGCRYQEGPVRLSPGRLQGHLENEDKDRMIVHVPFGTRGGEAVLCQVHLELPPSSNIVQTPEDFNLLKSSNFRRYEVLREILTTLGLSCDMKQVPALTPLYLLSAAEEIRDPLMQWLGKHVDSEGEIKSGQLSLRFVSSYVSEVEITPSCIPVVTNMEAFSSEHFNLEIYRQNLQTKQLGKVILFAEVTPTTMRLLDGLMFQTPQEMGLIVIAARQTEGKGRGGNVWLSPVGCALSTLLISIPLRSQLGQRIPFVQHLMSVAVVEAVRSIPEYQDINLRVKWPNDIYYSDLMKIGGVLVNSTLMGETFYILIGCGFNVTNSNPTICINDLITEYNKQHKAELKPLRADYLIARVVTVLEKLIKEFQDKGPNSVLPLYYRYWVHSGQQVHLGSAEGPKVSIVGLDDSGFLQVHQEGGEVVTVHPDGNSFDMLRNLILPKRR
UniProt Q01581: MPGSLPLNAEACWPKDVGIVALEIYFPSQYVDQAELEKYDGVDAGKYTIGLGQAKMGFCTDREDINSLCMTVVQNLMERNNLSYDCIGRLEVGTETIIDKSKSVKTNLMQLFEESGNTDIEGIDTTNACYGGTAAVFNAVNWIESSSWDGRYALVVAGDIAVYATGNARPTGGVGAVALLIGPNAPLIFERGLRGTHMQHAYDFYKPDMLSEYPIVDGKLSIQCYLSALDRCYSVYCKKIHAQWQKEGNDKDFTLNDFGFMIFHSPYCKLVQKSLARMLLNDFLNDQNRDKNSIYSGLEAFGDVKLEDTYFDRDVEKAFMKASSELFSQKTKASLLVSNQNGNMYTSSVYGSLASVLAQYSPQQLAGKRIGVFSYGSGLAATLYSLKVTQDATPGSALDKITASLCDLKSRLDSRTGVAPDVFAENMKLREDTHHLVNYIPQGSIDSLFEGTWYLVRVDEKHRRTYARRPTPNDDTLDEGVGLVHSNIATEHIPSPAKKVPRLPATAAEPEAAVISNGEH
UniProt Q8TCT9: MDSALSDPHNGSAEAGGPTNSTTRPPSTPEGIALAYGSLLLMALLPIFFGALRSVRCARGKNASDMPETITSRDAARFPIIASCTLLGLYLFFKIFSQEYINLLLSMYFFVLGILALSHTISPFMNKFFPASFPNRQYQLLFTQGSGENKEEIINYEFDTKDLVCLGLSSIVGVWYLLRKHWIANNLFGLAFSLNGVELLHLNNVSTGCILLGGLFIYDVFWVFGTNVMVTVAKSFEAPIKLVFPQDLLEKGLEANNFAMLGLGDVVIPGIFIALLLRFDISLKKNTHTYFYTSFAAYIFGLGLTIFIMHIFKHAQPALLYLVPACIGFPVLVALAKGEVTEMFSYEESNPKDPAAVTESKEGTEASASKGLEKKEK
UniProt P42694: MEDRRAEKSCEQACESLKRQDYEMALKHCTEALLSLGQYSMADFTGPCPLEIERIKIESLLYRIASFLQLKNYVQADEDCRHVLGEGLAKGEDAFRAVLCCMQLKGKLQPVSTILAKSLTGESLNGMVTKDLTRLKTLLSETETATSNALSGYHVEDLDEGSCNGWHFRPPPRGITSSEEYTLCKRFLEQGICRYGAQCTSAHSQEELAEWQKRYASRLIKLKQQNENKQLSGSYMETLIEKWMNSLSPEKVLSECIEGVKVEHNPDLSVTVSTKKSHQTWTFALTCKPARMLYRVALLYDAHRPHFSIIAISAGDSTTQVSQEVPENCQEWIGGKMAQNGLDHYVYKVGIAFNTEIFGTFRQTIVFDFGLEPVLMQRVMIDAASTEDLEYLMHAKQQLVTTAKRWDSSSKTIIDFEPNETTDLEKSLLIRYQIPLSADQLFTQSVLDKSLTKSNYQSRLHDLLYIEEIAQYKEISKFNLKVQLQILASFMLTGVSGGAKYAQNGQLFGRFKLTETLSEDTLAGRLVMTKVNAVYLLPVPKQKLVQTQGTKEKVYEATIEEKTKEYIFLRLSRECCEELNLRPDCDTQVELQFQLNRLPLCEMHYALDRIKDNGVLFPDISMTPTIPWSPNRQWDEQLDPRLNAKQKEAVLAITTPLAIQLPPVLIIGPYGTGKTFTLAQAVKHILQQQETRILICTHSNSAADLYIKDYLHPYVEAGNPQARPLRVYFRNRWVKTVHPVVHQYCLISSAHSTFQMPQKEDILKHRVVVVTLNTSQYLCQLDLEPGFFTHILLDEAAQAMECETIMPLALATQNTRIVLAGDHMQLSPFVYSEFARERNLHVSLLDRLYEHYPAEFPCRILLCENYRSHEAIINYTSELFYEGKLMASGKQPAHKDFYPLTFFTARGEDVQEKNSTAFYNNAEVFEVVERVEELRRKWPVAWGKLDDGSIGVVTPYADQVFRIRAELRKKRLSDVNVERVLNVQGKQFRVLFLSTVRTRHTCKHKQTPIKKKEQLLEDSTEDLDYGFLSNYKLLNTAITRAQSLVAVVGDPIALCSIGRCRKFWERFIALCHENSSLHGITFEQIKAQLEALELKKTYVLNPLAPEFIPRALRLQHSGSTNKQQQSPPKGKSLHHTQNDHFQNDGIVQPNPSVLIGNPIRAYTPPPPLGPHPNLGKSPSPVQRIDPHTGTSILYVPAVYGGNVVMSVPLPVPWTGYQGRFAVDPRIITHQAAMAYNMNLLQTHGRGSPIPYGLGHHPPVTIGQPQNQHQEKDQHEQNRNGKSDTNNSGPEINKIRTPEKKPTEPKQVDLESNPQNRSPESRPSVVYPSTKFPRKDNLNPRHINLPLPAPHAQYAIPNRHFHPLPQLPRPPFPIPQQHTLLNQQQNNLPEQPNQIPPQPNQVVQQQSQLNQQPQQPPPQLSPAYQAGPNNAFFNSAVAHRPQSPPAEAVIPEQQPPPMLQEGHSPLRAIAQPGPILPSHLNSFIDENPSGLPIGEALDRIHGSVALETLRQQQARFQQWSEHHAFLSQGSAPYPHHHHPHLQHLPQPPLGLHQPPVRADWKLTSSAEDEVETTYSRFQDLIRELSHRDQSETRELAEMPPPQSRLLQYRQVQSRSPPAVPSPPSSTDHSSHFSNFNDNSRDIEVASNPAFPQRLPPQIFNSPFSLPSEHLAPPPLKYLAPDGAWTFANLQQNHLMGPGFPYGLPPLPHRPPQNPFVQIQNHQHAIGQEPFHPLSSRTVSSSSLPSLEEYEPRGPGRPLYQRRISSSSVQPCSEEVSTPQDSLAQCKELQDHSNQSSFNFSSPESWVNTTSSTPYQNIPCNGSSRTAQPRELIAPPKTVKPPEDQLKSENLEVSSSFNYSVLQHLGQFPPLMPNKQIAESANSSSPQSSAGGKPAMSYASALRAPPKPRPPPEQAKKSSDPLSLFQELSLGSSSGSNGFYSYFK
UniProt Q9BXL5: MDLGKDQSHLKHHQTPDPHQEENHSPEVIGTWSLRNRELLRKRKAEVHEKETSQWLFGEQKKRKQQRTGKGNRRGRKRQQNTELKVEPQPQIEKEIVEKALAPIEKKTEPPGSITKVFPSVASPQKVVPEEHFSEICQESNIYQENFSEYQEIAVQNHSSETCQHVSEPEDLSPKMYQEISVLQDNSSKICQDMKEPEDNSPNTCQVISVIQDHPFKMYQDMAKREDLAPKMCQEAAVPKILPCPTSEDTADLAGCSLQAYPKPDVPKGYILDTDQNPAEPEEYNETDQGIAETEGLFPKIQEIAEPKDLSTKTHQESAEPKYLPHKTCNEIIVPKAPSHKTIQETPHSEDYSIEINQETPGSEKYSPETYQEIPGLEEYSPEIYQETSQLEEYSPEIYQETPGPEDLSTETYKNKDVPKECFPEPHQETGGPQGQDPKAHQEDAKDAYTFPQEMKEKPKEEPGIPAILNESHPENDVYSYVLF

Assays:
Assay in all cases: log2 fold change, soluble protein after heating vs DMSO (PISA); higher = thermal stabilisation; K562 lysate, 10 uM; active = over 0.2 and 3.5 SD of the protein, either way, in both replicates (recomputed)
lapatinib = compound: CS(=O)(=O)CCNCc1ccc(-c2ccc3ncnc(Nc4ccc(OCc5cccc(F)c5)c(Cl)c4)c3c2)o1 [lapatinib]
Procedure, shortened: (§1)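 To prepare the extract, K562 pellets were dounce-homogenised in PBS pH 7.4 with 1 mM MgCl2, giving crude material at 1 mg/mL protein. This was treated with 10 μM compound for 30 min, then heated in aliquots for 3 min over 48°C-58°C before pooling and addition of NP-40 to 0.5% at 4°C. Centrifugation at 21,000xg for 90 min left soluble protein in the supernatant, which TMTpro 16plex LC-MS/MS quantified with equalised channel sums. Results are log-two fold changes in thermal stability compared with solvent controls, from duplicates.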

pictilisib = compound: CS(=O)(=O)N1CCN(Cc2cc3nc(-c4cccc5[nH]ncc45)nc(N4CCOCC4)c3s2)CC1 [pictilisib]
Procedure, shortened: as §1

crizotinib = compound: C[C@@H](Oc1cc(-c2cnn(C3CCNCC3)c2)cnc1N)c1c(Cl)ccc(F)c1Cl [crizotinib]
Procedure, shortened: as §1

[1] = compound: C[C@H](C1=CC=C(C=C1)C(=O)NC2=C3C=CNC3=NC=C2)N
Procedure, shortened: as §1

duvelisib = compound: C[C@H](Nc1ncnc2nc[nH]c12)c1cc2cccc(Cl)c2c(=O)n1-c1ccccc1 [duvelisib]
Procedure, shortened: as §1

gandotinib = compound: Cc1cc(Nc2cc(CN3CCOCC3)c3nc(C)c(Cc4ccc(Cl)cc4F)n3n2)n[nH]1 [gandotinib]
Procedure, shortened: as §1

tozasertib = compound: Cc1cc(Nc2cc(N3CCN(C)CC3)nc(Sc3ccc(NC(=O)C4CC4)cc3)n2)n[nH]1 [tozasertib]
Procedure, shortened: as §1

doramapimod = compound: Cc1ccc(-n2nc(C(C)(C)C)cc2NC(=O)Nc2ccc(OCCN3CCOCC3)c3ccccc23)cc1 [doramapimod]
Procedure, shortened: as §1

bafetinib = compound: Cc1ccc(NC(=O)c2ccc(CN3CC[C@H](N(C)C)C3)c(C(F)(F)F)c2)cc1Nc1nccc(-c2cncnc2)n1 [bafetinib]
Procedure, shortened: as §1

[2] = compound: Cc1cccc(CC(=O)N2CCc3c2ccc(-c2cn(C)c4ncnc(N)c24)c3F)n1
Procedure, shortened: as §1

nilotinib = compound: Cc1cn(-c2cc(NC(=O)c3ccc(C)c(Nc4nccc(-c5cccnc5)n4)c3)cc(C(F)(F)F)c2)cn1 [nilotinib]
Procedure, shortened: as §1

[3] = compound: Cc1nc(Nc2n[nH]c3c2CN(C(=O)N[C@H](CN(C)C)c2ccccc2)C3(C)C)c2sccc2n1
Procedure, shortened: as §1

dasatinib = compound: Cc1nc(Nc2ncc(C(=O)Nc3c(C)cccc3Cl)s2)cc(N2CCN(CCO)CC2)n1 [dasatinib]
Procedure, shortened: as §1

[4] = compound: Cc1ncc(-c2ccnc(Nc3ccc(S(C)(=O)=O)cc3)n2)n1C(C)C
Procedure, shortened: as §1

[5] = compound: Cn1cc(-c2ccc3c(c2)CCN3C(=O)Cc2cccc(C(F)(F)F)c2)c2c(N)ncnc21
Procedure, shortened: as §1

quisinostat = compound: Cn1cc(CNCC2CCN(c3ncc(C(=O)NO)cn3)CC2)c2ccccc21 [quisinostat]
Procedure, shortened: as §1

tipifarnib = compound: Cn1cncc1[C@@](N)(c1ccc(Cl)cc1)c1ccc2c(c1)c(-c1cccc(Cl)c1)cc(=O)n2C [tipifarnib]
Procedure, shortened: as §1

[6] = compound: NC(=O)Nc1cc(-c2cccc(F)c2)sc1C(=O)N[C@H]1CCCNC1
Procedure, shortened: as §1

[7] = compound: NC(=O)c1cnc(N[C@@H]2CCCC[C@@H]2N)nc1Nc1cccc(-n2nccn2)c1
Procedure, shortened: as §1

[8] = compound: NC1(c2ccc(-c3nc4ccn5c(=O)[nH]nc5c4cc3-c3ccccc3)cc2)CCC1
Procedure, shortened: as §1

Measured: log2 fold change

HSPA1L (UniProt P34931)
inactive: lapatinib -0.081 | pictilisib -0.042 | crizotinib 0.055 | [1] -0.037 | duvelisib 0.104 | gandotinib 0.012 | tozasertib 0.068 | doramapimod 0.025 | bafetinib 0.002 | [2] 0.01 | nilotinib -0.011 | [3] -0.017 | dasatinib 0.068 | [4] 0.014 | [5] -0.052 | quisinostat 0.191 | tipifarnib -0.017 | [6] 0.052 | [7] 0.065 | [8] -0.065

HLCS (UniProt P50747)
inactive: lapatinib -0.026 | pictilisib -0.022 | crizotinib -0.009 | [1] 0.199 | duvelisib 0.016 | gandotinib -0.002 | tozasertib 0.006 | doramapimod 0.026 | bafetinib -0.045 | [2] -0.007 | nilotinib -0.005 | [3] -0.005 | dasatinib 0.012 | [4] -0.003 | [5] 0.068 | quisinostat -0.022 | tipifarnib -0.006 | [6] -0.011 | [7] 0.024 | [8] 0.02

HMGCS1 (UniProt Q01581)
inactive: lapatinib 0.077 | pictilisib 0.018 | crizotinib 0.001 | [1] -0.031 | duvelisib 0.003 | gandotinib 0.006 | tozasertib -0.006 | doramapimod 0.036 | bafetinib 0.013 | [2] -0.004 | nilotinib 0.003 | [3] -0.015 | dasatinib 0.02 | [4] 0.012 | [5] -0.005 | quisinostat -0.007 | tipifarnib 0.001 | [6] -0.016 | [7] -0.008 | [8] -0.018

HM13 isoform 2 (UniProt Q8TCT9)
inactive: lapatinib 0.016 | pictilisib -0.004 | crizotinib -0.004 | [1] -0.063 | duvelisib 0.018 | gandotinib 0.018 | tozasertib 0.002 | doramapimod 0.016 | bafetinib -0.017 | [2] 0.015 | nilotinib 0.003 | [3] -0.013 | dasatinib -0.024 | [4] 0 | [5] -0.053 | quisinostat -0.037 | tipifarnib -0.028 | [6] -0.016 | [7] -0.026 | [8] -0.012

HELZ (UniProt P42694)
inactive: lapatinib -0.018 | pictilisib -0.085 | crizotinib -0.001 | [1] -0.058 | duvelisib -0.002 | gandotinib 0.051 | tozasertib 0.036 | doramapimod -0.168 | bafetinib -0.1 | [2] 0.092 | nilotinib -0.006 | [3] 0.01 | dasatinib -0.043 | [4] -0.015 | [5] 0.079 | quisinostat -0.045 | tipifarnib -0.028 | [6] 0.065 | [7] -0.11 | [8] -0.018

HIST2H2AA3 (UniProt Q6FI13)
active: [1] 0.555
inactive: lapatinib 0.001 | pictilisib -0.016 | crizotinib 0.049 | duvelisib -0.044 | gandotinib -0.143 | tozasertib 0.022 | doramapimod -0.088 | bafetinib 0.159 | [2] -0.171 | nilotinib 0.135 | [3] -0.098 | dasatinib 0.081 | [4] 0.035 | [5] -0.041 | quisinostat 0.064 | tipifarnib 0.058 | [6] 0.076 | [7] 0.01 | [8] 0.048

HEMGN (UniProt Q9BXL5)
inactive: lapatinib -0.007 | pictilisib 0.004 | crizotinib 0.039 | [1] 0.03 | duvelisib -0.014 | gandotinib -0.016 | tozasertib -0.002 | doramapimod -0.032 | bafetinib 0.036 | [2] -0.134 | nilotinib -0.011 | [3] -0.002 | dasatinib 0.021 | [4] 0.013 | [5] 0.011 | quisinostat 0.027 | tipifarnib 0.019 | [6] -0.026 | [7] -0.03 | [8] -0.005
